“Also recorded” adds a separate entry of the source. For some of these results: At least one peptide structure holds a part that was inferred or is arguable (an end, a ring closure or a residue). For at least one compound, name, drawing or mass did not settle the structure. Square brackets hold non-standard residues; d marks the D form. Peptide text beside a SMILES is read from it.
How the values were obtained:
[1] = test system: caerulein-induced acute pancreatitis (AP) in mice; assay: Caerulein-induced acute pancreatitis in mice (mild model, 7 hourly i.p. injections) with galanin or galanin antagonists; format: in vivo, mouse (female Balb C or Swiss); details: mouse caerulein AP; for pancreatic acinar cell necrosis score: histology scoring system
GALR2 = molecular target: T1, GALR2 (Homo sapiens, UniProt O43603); details: cited from earlier work
T1 sequence (O43603 1-387): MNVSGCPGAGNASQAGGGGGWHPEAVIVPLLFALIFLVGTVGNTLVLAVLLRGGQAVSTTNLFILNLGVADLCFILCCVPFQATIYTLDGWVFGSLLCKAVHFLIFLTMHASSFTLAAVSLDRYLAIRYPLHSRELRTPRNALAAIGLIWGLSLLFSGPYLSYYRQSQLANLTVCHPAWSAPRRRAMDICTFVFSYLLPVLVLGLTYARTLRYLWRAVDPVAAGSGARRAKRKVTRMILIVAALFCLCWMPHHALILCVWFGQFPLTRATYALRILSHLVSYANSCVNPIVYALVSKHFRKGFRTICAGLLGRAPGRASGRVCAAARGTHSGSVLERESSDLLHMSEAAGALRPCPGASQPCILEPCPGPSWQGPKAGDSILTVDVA

[2] = 10 nmol/kg i.p. with each caerulein injection, reduction of AP-induced level
[3] = 40 nmol/kg i.p. with each caerulein injection, reduction of AP-induced level

| Structure (SMILES) | pancreatic myeloperoxidase (MPO) activity [1, 2] | plasma amylase activity [1, 2] | pancreatic acinar cell necrosis score ([1]; 10 nmol/kg) | pancreatic acinar cell necrosis score ([1]; 10 nmol/kg, listed as galanin) | histology score (pancreatic tissue damage) ([1]; 10 nmol/kg, scoring system) | binding to GALR2 (in words) (GALR2) | plasma amylase activity [1, 3] | plasma lipase activity [1, 3] | pancreatic myeloperoxidase (MPO) activity ([1]; 40 nmol/kg i.p. with each caerulein injection, vs AP alone) | pancreatic myeloperoxidase (MPO) activity ([1]; dose not given (20 and 40 nmol/kg tested), decrease of AP-induced level) |
| --- | --- | --- | --- | --- | --- | --- | --- | --- | --- | --- |
| CC(C)C[C@H](NC(=O)CNC(=O)[C@H](CC(N)=O)NC(=O)[C@H](CCCCN)NC(=O)[C@H](CC(=O)O)NC(=O)[C@H](CO)NC(=O)[C@H](Cc1ccccc1)NC(=O)[C@H](CO)NC(=O)[C@H](CCCNC(=N)N)NC(=O)[C@H](Cc1c[nH]cn1)NC(=O)[C@H](CC(N)=O)NC(=O)CNC(=O)[C@@H](NC(=O)[C@H](C)NC(=O)[C@H](Cc1c[nH]cn1)NC(=O)[C@@H]1CCCN1C(=O)CNC(=O)[C@H](CC(C)C)NC(=O)[C@H](CC(C)C)NC(=O)[C@H](Cc1ccc(O)cc1)NC(=O)CNC(=O)[C@H](C)NC(=O)[C@H](CO)NC(=O)[C@H](CC(N)=O)NC(=O)[C@H](CC(C)C)NC(=O)[C@@H](NC(=O)[C@H](Cc1c[nH]c2ccccc12)NC(=O)CN)[C@@H](C)O)C(C)C)C(=O)N[C@H](C(=O)N[C@@H](CO)C(=O)O)[C@@H](C)O [Galanin] | but not with | did not alter the plasma amylase level | without effect | had no effect | without effect | binds | – | – | – | – |
| CC(C)C[C@H](NC(=O)[C@H](CC(C)C)NC(=O)[C@@H](Cc1c[nH]c2ccccc12)NC(=O)[C@H](Cc1ccccc1)NC(=O)[C@@H](Cc1c[nH]c2ccccc12)NC(=O)[C@H](CCC(N)=O)NC(=O)[C@H](CCC(N)=O)NC(=O)[C@@H]1CCCN1C(=O)[C@H](CCCCN)NC(=O)[C@@H]1CCCN1C(=O)[C@@H](CCCNC(=N)N)NC(=O)[C@@H]1CCCN1C(=O)CNC(=O)[C@H](CC(C)C)NC(=O)[C@H](CC(C)C)NC(=O)[C@H](Cc1ccc(O)cc1)NC(=O)CNC(=O)[C@H](C)NC(=O)[C@H](CO)NC(=O)[C@H](CC(N)=O)NC(=O)[C@H](CC(C)C)NC(=O)[C@@H](NC(=O)[C@H](Cc1c[nH]c2ccccc12)NC(=O)CN)[C@@H](C)O)C(N)=O [C7, Galanin(1-13)-spantide amide] (H-GWTLNSAGYLLGP[dR]PKPQQ[dW]F[dW]LL-NH2) | – | – | – | – | – | – | depressed; also recorded: significantly reduced | significantly reduced | increased the level of acute pancreatitis-induced MPO activity; also recorded: increased the pancreatic MPO activity above that seen with AP alone | but not by |

From patent publication US8318657B2, “Methods and compositions for preventing and/or treating pancreatitis” (Flinders Technologies Pty Ltd., priority 2005, dated 2012)
